{
  "source": "paper doi:10.1101/150714",
  "molecular_target": "T1, Brc1 fragment 3-4 in pGBKT7 (S. pombe) (UniProt Q10337)",
  "T1 sequence": "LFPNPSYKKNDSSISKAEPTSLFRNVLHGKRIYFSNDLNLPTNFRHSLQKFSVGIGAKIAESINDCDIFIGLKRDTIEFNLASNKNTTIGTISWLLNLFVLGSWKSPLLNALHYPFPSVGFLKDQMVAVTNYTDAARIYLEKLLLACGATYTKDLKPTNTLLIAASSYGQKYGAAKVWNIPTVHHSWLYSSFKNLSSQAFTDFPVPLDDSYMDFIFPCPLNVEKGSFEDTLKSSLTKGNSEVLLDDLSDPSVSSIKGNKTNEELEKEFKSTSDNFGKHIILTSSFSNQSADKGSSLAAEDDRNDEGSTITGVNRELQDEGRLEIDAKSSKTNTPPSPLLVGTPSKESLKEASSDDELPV",
  "experiment": "two-hybrid",
  "note": "No constants are given. Whether binding was seen depends on the method and setting.",
  "data": [
    {"binder": "full length Rhp18 in pGADT7 (protein, UniProt O74747 1-387) MNELDATDPSDWNQTKIPSLKGLDSSLRCLICHEYFRAPLITSCSHTFCSFCIRDYLREHPMCPACRAPEQESRLRKNTILEEILESFKVIRPTLFEFLKVENVPKPVLQAPETVIAQDSASGDEEWEDDLASNSSPASIAKKTSRDSKKRKREDLVHCPACSNLVPHNQINQHLDSCLNSPSSPSSSSSPYKNKDNSKSNSLLSFKTDDDSITKRRLRSFNSADELPLKDRVRLPKLTYALLSESKIRSKLSEMGLPTDGHKQLLQRRHAKWVTLYNSNLDQKQPVSKRNLIRQLIDWERVQSKSIGVEKEKLGGGDWEKAYAEDFADLINRAKQSTTNKNDSLRNTAVESSTEPSTSNGFPATSVSPPLTIDLTNSQTGSDGPQS", "values": [
      {"measurement": "binding", "value": "no binding"}
    ]}
  ]
}
